Data reported in the supplement of paper PMC6078165.
The reference is the same well before dosing, and untreated signal decays as well.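 Fibroblast labels denote human fibroblasts, mainly primary ones from uterus (C12385, HUF), lung (H6013), bone (Hs27A), adrenal (HADF) and skin (WS1), plus mammary HMF and breast cancer-associated Hs343T. Cancer cells are basal-like or mesenchymal-like triple-negative breast cancer lines. A hit is a response shift exceeding 3x replicate standard deviation. The tissue of the other fibroblasts is not given here.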

Tested on: BT20
Experiment: relative JC-1 red fluorescence (viability) vs pre-drug, coculture with fibroblast (fraction); higher = more viable cancer cells
Protocol: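 JC-1 labelled TNBC cells cocultured 1:1 (1,500 cells each) with CellTrace Violet stained primary or stromal fibroblasts in 384-well plates in FluoroBrite medium, treated with one of 42 anticancer drugs at 0.1, 1, 10 or 100 uM. JC-1 red fluorescence (mitochondrial integrity in cancer cells only) was read by plate reader every 8 h for 72 h. Values are normalised to each well's pre-drug value. The stock of one drug was tenfold lower, so its dose labels may be too high.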

C#Cc1cccc(Nc2ncnc3cc(OCCOC)c(OCCOC)cc23)c1 [Erlotinib]
relative JC-1 red fluorescence
Details	8 h	16 h	24 h	32 h	40 h	48 h	56 h	64 h	72 h
0.1 µM, coculture fibroblast: C12385	0.898	0.818	0.786	0.725	0.675	0.644	0.628	0.601	0.587
0.1 µM, coculture fibroblast: H6013	0.868	0.883	0.793	0.768	0.866	0.864	0.825	0.85	0.837
0.1 µM, coculture fibroblast: H6019	0.881	0.827	0.82	0.785	0.752	0.74	0.713	0.692	0.68
0.1 µM, coculture fibroblast: H6076	0.977	0.897	0.838	0.821	0.796	0.77	0.764	0.77	0.753
0.1 µM, coculture fibroblast: H6231	0.726	0.919	0.808	0.745	0.692	0.642	0.599	0.574	0.55
0.1 µM, coculture fibroblast: HADF	0.764	0.929	0.8292	0.805	0.776	0.731	0.722	0.684	0.64
0.1 µM, coculture fibroblast: HCFa	0.941	0.925	0.919	0.868	0.847	0.811	0.802	0.792	0.755
0.1 µM, coculture fibroblast: HCPF	0.872	0.922	0.843	0.8006	0.751	0.7061	0.667	0.658	0.629
0.1 µM, coculture fibroblast: HHSteC	0.92	0.833	0.81	0.742	0.689	0.655	0.629	0.609	0.578
0.1 µM, coculture fibroblast: HMF	0.832	0.851	0.754	0.6918	0.656	0.6118	0.5869	0.5553	0.533
0.1 µM, coculture fibroblast: HPFa	0.977	0.939	0.964	0.918	0.896	0.849	0.826	0.789	0.731
0.1 µM, coculture fibroblast: HUF	0.896	0.811	0.776	0.693	0.638	0.6006	0.5778	0.5574	0.547
0.1 µM, coculture fibroblast: Hs5	0.863	0.892	0.8403	0.7908	0.749	0.714	0.692	0.6551	0.633
0.1 µM, coculture fibroblast: Hs27A	0.846	0.823	0.888	0.912	0.861	0.828	0.796	0.761	0.706
0.1 µM, coculture fibroblast: Hs343T	0.935	0.844	0.747	0.691	0.653	0.621	0.583	0.575	0.558
0.1 µM, coculture fibroblast: WS1	0.8944	0.8073	0.776	0.718	0.659	0.63	0.606	0.575	0.556
1 µM, coculture fibroblast: C12385	0.889	0.836	0.811	0.753	0.706	0.676	0.653	0.647	0.637
1 µM, coculture fibroblast: H6013	0.941	0.9021	0.872	0.847	0.817	0.811	0.809	0.793	0.783
1 µM, coculture fibroblast: H6019	0.8619	0.7983	0.759	0.69	0.646	0.62	0.582	0.55	0.5273
1 µM, coculture fibroblast: H6076	0.846	0.914	0.845	0.806	0.776	0.761	0.76	0.761	0.746
1 µM, coculture fibroblast: H6231	0.809	0.905	0.834	0.765	0.721	0.673	0.648	0.616	0.591
1 µM, coculture fibroblast: HADF	0.961	0.942	0.91	0.891	0.905	0.902	0.896	0.907	0.891
1 µM, coculture fibroblast: HCFa	0.909	0.907	0.888	0.858	0.84	0.825	0.796	0.758	0.7106
1 µM, coculture fibroblast: HCPF	0.915	0.905	0.829	0.7778	0.721	0.674	0.644	0.627	0.598
1 µM, coculture fibroblast: HHSteC	0.897	0.887	0.889	0.8264	0.809	0.779	0.767	0.745	0.728
1 µM, coculture fibroblast: HMF	0.958	0.865	0.78	0.731	0.699	0.65	0.623	0.6	0.582
1 µM, coculture fibroblast: HPFa	0.922	0.886	0.879	0.809	0.797	0.766	0.733	0.709	0.663
1 µM, coculture fibroblast: HUF	0.88707	0.8073	0.794	0.722	0.691	0.66	0.643	0.629	0.619
1 µM, coculture fibroblast: Hs5	0.948	0.883	0.827	0.763	0.733	0.699	0.676	0.657	0.626
1 µM, coculture fibroblast: Hs27A	0.738	0.931	0.922	0.917	0.871	0.854	0.83	0.795	0.75
1 µM, coculture fibroblast: Hs343T	0.807	0.918	0.81	0.743	0.689	0.636	0.594	0.567	0.543
1 µM, coculture fibroblast: WS1	0.876	0.78966	0.747	0.683	0.628	0.604	0.582	0.56	0.552
